Results taken from PubChem BioAssay AID2685 (National Center for Advancing Translational Sciences (NCATS), 2010).
Some of the results follow. These are further read-outs of the screen, such as a control signal, another cell line or another target. No call is given for them. Most of these compounds were active or inconclusive in the main read-out, so they are no random draw. Potencies come from curve fits of mixed quality, noted in brackets.

Assay: qHTS Assay for Lipid Storage Modulators in Drosophila S3 Cells;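 on cell number change: cells counted by Cell Tracker Red CMTPX staining in the red channel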
Conditions: BODIPY lipid droplet fluorescence, 18-24 h; for cell number change: measured here: cell count max response, cells fed with added oleic acid
Procedure, shortened: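 Laser-scanning cytometry quantifies lipid droplet accumulation (500–530 nm total intensity; droplet/cell object ratio) in oleic acid-fed (400 uM added) Drosophila S3 cells treated with a concentration series. 20 uM Triacsin C defined 100% inhibition.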

[1] = measured here: lipid fluorescence (Fed channel) AC50, cells fed with added oleic acid
[2] = measured here: cell number channel AC50, cells fed with added oleic acid

Compound	cell number change [%]	AC50 [1]	AC50 [2]
Cc1cc(C)n2nc(C(=O)N/N=C/C=C/c3ccccc3)nc2n1	-12.7	16.4 µM [falling, single point]	
C=CCn1c(=O)c2c(nc3n2CCCN3Cc2ccccc2)n(C)c1=O	-0.917	0.58 µM [rising, single point]	
NS(=O)(=O)c1ccc(CCNC(=O)c2ccc(OCC3CCCO3)cc2)cc1 (stereo unspecified)	24.8	0.116 µM [rising, full curve, poor fit]	
COc1ccccc1NC(=O)C1CCCN(S(=O)(=O)c2ccc3[nH]c(=O)ccc3c2)C1 (stereo unspecified)	23.1	29.1 µM [rising, single point]	
COc1ccc(/C=C/C(=O)OC(C)CN2CCCCC2)cc1 (stereo unspecified)	24.9	20.6 µM [rising, single point]	
CC(C)(C)C(=O)Nc1cccc(-c2nnc(-c3cccc(NC(=O)C(C)(C)C)c3)o2)c1	23.5	4.61 µM [rising, full curve]	
Cc1ccnc(NC(=O)c2cccc(OC(F)F)c2)n1	-14.3		
CCn1c(/C=C/c2ccccc2F)nc2ccccc2c1=O	-9.89	29.1 µM [falling, single point]	
Cc1ccc(C(C)C)c(OCC(=O)NNC(=O)Cn2[nH]c(=O)c3ccccc3c2=O)c1	16.9	0.326 µM [falling, single point]	
Cc1cccc(OCC(=O)N(Cc2nnc(-c3ccccc3Cl)o2)C2CC2)c1	22.2	0.103 µM [rising, full curve, poor fit]	
Cc1ccc(NS(=O)(=O)c2cccc(C(=O)NCC(c3ccc(F)cc3)N3CCOCC3)c2)cc1 (stereo unspecified)	4.41	0.206 µM [falling, full curve, poor fit]	
CSc1ccc(/C=C/C(=O)c2ccc(NC(=O)C(C)C)cc2)cc1	-11.5	4.11 µM [falling, full curve, poor fit]	
O=C(NC1CCCC1)C(c1ccncc1)N(C(=O)Cc1cccs1)c1cccc(F)c1 (stereo unspecified)	-5.13		0.731 µM [rising, single point]
Cc1ccc(N/C(CSC(N)=O)=N/S(=O)(=O)c2ccccc2)cc1		20.6 µM [falling, partial curve]	
N#Cc1nc(-c2ccccc2F)oc1NCc1ccccc1	-14.4		
O=C(COC(=O)c1cc2c(s1)CCCCC2)NC1CCS(=O)(=O)C1 (stereo unspecified)	-44.4		
CC1=CC(C)(C)N2C(=O)C3(C(C#N)=C(N)OC4=C3C(=O)CC(C)(C)C4)c3c(C)c(C)cc1c32 (stereo unspecified)	-6.76		1.64 µM [rising, partial curve]
COc1ccccc1C(=O)COC(=O)CNS(=O)(=O)c1ccc(C)c(C)c1	-24	16.4 µM [falling, partial curve]	
CCOc1ccc(/C=N/N(C)c2ccccc2)cc1OC	4.88	0.58 µM [rising, single point]	
O=C(CNC(=O)c1ccccc1)N/N=C/c1ccccc1Cl	-6.37		

Compound	cell number change [%]	AC50 [1]	AC50 [2]
COc1ccc(N2C(=O)c3cc4ccccc4cc3C2=O)cc1	34.4	16.4 µM [rising, partial curve, poor fit]	29.1 µM [rising, partial curve, poor fit]
Cc1ccn2c(=O)c(NC(=O)COc3ccccc3)c(C)nc2c1	8.62		
Cc1cccc(COc2ccccc2C(=O)N(C)CC(=O)Nc2cccc(F)c2)c1	-11.7	13 µM [rising, partial curve, poor fit]	
CCCCCCCC(=O)Oc1ccc(C(=O)Nc2cc(C)on2)cc1	1.39	29.1 µM [falling, single point]	
COc1ccc(NC(=S)NNC(=O)c2nnn(-c3ccccc3)c2C)cc1	-1	7.31 µM [rising, partial curve]	
COc1cc(C(=O)N/N=C/c2ccc(OC(=O)c3ccccc3Cl)cc2)ccc1O	-30.2		1.16 µM [falling, partial curve]
Cc1ccc(SCc2[nH]nc3c2C2(C(=O)Nc4ccc(F)cc42)C(C#N)=C(N)O3)cc1 (stereo unspecified)	18.5	0.461 µM [rising, full curve, poor fit]	
Cc1cc(C)cc(OCC(=O)Nc2cccc(-c3nnc(-c4ccco4)o3)c2)c1		0.651 µM [falling, single point]	
COc1ccc(-n2c(SCC(=O)N3CCC(C(=O)O)CC3)nc3ccccc3c2=O)cc1OC	-14.3	14.6 µM [falling, partial curve]	
Cc1ccc(N(C(=O)C(F)(F)F)C(C(=O)NC2CCCCC2)c2ccncc2)cc1C (stereo unspecified)	21.6	0.291 µM [rising, single point]	
O=C(Cn1c(O)c(/C=C2\C=Nc3ccc(Br)cc32)sc1=O)N1CCCC1			7.31 µM [rising, single point]
CCc1ccc2[nH]c(C(=O)N(C)c3ccc(F)cc3F)cc2c1	20.8	0.58 µM [rising, single point]	
O=C(O)c1cccc(N/N=C/c2cccc3ccccc23)c1	24.8	29.1 µM [rising, single point]	
CC1=C(C)CC2(SC1)C(=O)N(c1ccccc1)N=C2N (stereo unspecified)	54.9		1.84 µM [rising, full curve]
CCCNS(=O)(=O)c1cccc(C(=O)NC2CCCc3ccccc32)c1 (stereo unspecified)		20.6 µM [falling, single point]	
Cn1cnnc1SCC(=O)N1N=C(c2ccc(Cl)cc2)CC1c1ccco1 (stereo unspecified)	127		
Cc1ccc(NC(=O)CN(C)C(=O)c2ccc(C(F)(F)F)cc2)cc1	-20.5	0.116 µM [falling, full curve, poor fit]	0.092 µM [falling, full curve, poor fit]
O=C(COC(=O)c1cccs1)Nc1ccccc1[N+](=O)[O-]	-104		18.4 µM [falling, partial curve, poor fit]
CC(Oc1ccc(F)cc1)C(=O)Nc1ccccc1N1CCCCC1 (stereo unspecified)	64.5	20.6 µM [rising, partial curve]	18.4 µM [rising, partial curve]

Arranged by molecular weight (rising): part of the list above.
Compound	cell number change [%]	AC50 [1]	AC50 [2]
CCn1c(/C=C/c2ccccc2F)nc2ccccc2c1=O	-9.89	29.1 µM [falling, single point]	
COc1ccccc1C(=O)COC(=O)CNS(=O)(=O)c1ccc(C)c(C)c1	-24	16.4 µM [falling, partial curve]	
Cc1ccc(NS(=O)(=O)c2cccc(C(=O)NCC(c3ccc(F)cc3)N3CCOCC3)c2)cc1 (stereo unspecified)	4.41	0.206 µM [falling, full curve, poor fit]	
